# Where a name gives a salt, the structure may show the parent alone. The list shows a part of the results. Repeats in this data set agree poorly, so a single value says little.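 Screen of FDA-approved drugs, each combined with colistin at one-eighth of its MIC, against a multidrug-resistant mcr-1-positive clinical E. coli isolate; growth read as OD600 after 24 h. Bacteria without drug were the growth control and plain broth the blank. A combination counted as active when OD600 fell below 0.2.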
# Test system: Escherichia coli 42 (mcr-1-positive clinical isolate)
# Experiment: OD600 after 24 h growth with compound plus colistin (absorbance units (OD600)); higher = more bacterial growth (less inhibition)
# Conditions: first compound 25 µM; colistin concentration 0.5 ug/mL; incubation time 24 h; 37 °C
row,Compound,OD600
1,CCc1cc(C(N)=S)ccn1 [Ethionamide] + CCC(C)CCCC(=O)N[C@@H](CCN)C(=O)N[C@H](C(=O)N[C@@H](CCN)C(=O)N[C@H]1CCNC(=O)[C@H]([C@@H](C)O)NC(=O)[C@H](CCN)NC(=O)[C@H](CCN)NC(=O)[C@H](CC(C)C)NC(=O)[C@@H](CC(C)C)NC(=O)[C@H](CCN)NC1=O)[C@@H](C)O [colistin],active: 0.038
2,CC1(C)C[C@@H]1C(=O)N/C(=C\CCCCSC[C@H](N)C(=O)O)C(=O)O [Cilastatin] + CCC(C)CCCC(=O)N[C@@H](CCN)C(=O)N[C@H](C(=O)N[C@@H](CCN)C(=O)N[C@H]1CCNC(=O)[C@H]([C@@H](C)O)NC(=O)[C@H](CCN)NC(=O)[C@H](CCN)NC(=O)[C@H](CC(C)C)NC(=O)[C@@H](CC(C)C)NC(=O)[C@H](CCN)NC1=O)[C@@H](C)O [colistin],inactive: 0.782
3,Cc1ccc(O)c([C@H](CCN(C(C)C)C(C)C)c2ccccc2)c1 [Tolterodine tartrate] + CCC(C)CCCC(=O)N[C@@H](CCN)C(=O)N[C@H](C(=O)N[C@@H](CCN)C(=O)N[C@H]1CCNC(=O)[C@H]([C@@H](C)O)NC(=O)[C@H](CCN)NC(=O)[C@H](CCN)NC(=O)[C@H](CC(C)C)NC(=O)[C@@H](CC(C)C)NC(=O)[C@H](CCN)NC1=O)[C@@H](C)O [colistin],inactive: 1.16
4,Nc1ccn([C@@H]2O[C@H](CO)[C@@H](O)[C@@H]2O)c(=O)n1 [Cytarabine] + CCC(C)CCCC(=O)N[C@@H](CCN)C(=O)N[C@H](C(=O)N[C@@H](CCN)C(=O)N[C@H]1CCNC(=O)[C@H]([C@@H](C)O)NC(=O)[C@H](CCN)NC(=O)[C@H](CCN)NC(=O)[C@H](CC(C)C)NC(=O)[C@@H](CC(C)C)NC(=O)[C@H](CCN)NC1=O)[C@@H](C)O [colistin],inactive: 0.99
